According to PubChem BioAssay AID2417 (National Center for Advancing Translational Sciences (NCATS), 2010):
The whole screen tested about 140,000 compounds, of which about 4,300 (3.1%) were called active. The inconclusive results got no clear call from the source; some entries with a clear call stand among them for comparison.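 The calls were made as follows: active = readout at or below -70, meaning at least 70% loss of cells showing the perinucleolar compartment, a nuclear body marking cancer cells; inconclusive = readout between -30 and a set limit; inactive = the rest.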

Assay: High Content Assay for Compounds that inhibit the Assembly of the Perinucleolar Compartment;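 also: plate controls were DMSO wells for no effect and camptothecin positive control wells for full effect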
Conditions: PC3M PTB-GFP, PNC prevalence imaging, 16 h; at 10 µM; active compounds read low
Summary of the method: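 Compounds are pinned in duplicate onto adhered PC3M cells stably expressing GFP-tagged PTB and incubated 16 h at 37 C. Cells are then fixed, nuclei stained with Hoechst, and PNC-positive cells counted.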
For `Cc1ccc(N2C(=O)[C@@H]3C(C(=O)CCN4C(=O)c5ccccc5C4=O)=NN[C@@H]3C2=O)cc1`, the activity change (PNC), negative = inhibition was inconclusive: -35.1%. In the case of `Cn1c(=O)c2c(nc(SCC(=O)NC34CC5CC(CC(C5)C3)C4)n2C)n(C)c1=O`, the activity change (PNC), negative = inhibition is reported as inactive: -16.6%. In the case of `CCOC(=O)C1=C(C)NC(C)=C(C(=O)OCC)C1c1sccc1C`, the activity change (PNC), negative = inhibition is reported as inactive: 20.8%. In the case of `CCOc1ccc2ccccc2c1/C=N/NC(=O)CNC(=O)Cc1ccccc1`, the activity change (PNC), negative = inhibition is reported as inconclusive: -46.7%. With `CCOC(=O)C1=C(C)NC(C)=C(C(=O)OCC)C1C(=O)OCC(=O)N1CCc2ccccc21` the activity change (PNC), negative = inhibition was active: -99.2%. With `Cc1cccc(C(=O)NC(NC(=S)Nc2ccc(S(N)(=O)=O)cc2)C(Cl)(Cl)Cl)c1` (stereo not drawn) the activity change (PNC), negative = inhibition was inactive: 40.3%. With `COC(=O)c1ccc(COC(=O)c2ccc(N(C)C)cc2)cc1` the activity change (PNC), negative = inhibition was inactive: -12.9%. In the case of `CN1CCN(C(=O)CCCOc2cc(=O)n(C)c3ccccc23)CC1`, the activity change (PNC), negative = inhibition is reported as inconclusive: -36.7%. In the case of `CCOc1ccc(C(=O)NCC(=O)OCC(=O)N2C(C)CCCC2C)cc1` (stereo not drawn), the activity change (PNC), negative = inhibition is reported as inconclusive: -40.9%. For `COc1ccc(Nc2nc(C)c(-c3ccccc3)s2)cc1`, the activity change (PNC), negative = inhibition was inactive: -24.5%. In the case of `COc1ccc(C(=O)C[n+]2ccc3c(c2)nc(-c2cc(OC)c(OC)cc2OC)n3C)cc1`, the activity change (PNC), negative = inhibition is reported as inconclusive: -47.1%. With `COc1cc(NS(=O)(=O)c2ccc(NC(=O)c3ccco3)cc2)nc(OC)n1` the activity change (PNC), negative = inhibition was active: -82.2%. In the case of `COc1ccc(COC(=O)NNC(=O)c2ccc(OC)cc2)cc1`, the activity change (PNC), negative = inhibition is reported as inconclusive: -35%. For `Cc1ccc(C(=O)NCC(=O)O)cc1S(=O)(=O)N1CCCCC1`, the activity change (PNC), negative = inhibition was inconclusive: -57.2%. In the case of `O=C(c1cccn2c(=O)c3ccccc3nc12)N1CCN(Cc2ccc3c(c2)OCO3)CC1`, the activity change (PNC), negative = inhibition is reported as inconclusive: -52.2%. In the case of `COc1ccc(N2CCN(C(c3cc(OC)ccc3OC)c3nnnn3Cc3ccco3)CC2)cc1` (stereo not drawn), the activity change (PNC), negative = inhibition is reported as inconclusive: -31.2%. With `Cc1onc(-c2ccccc2)c1C(=O)NCCc1ccc(S(N)(=O)=O)cc1` the activity change (PNC), negative = inhibition was inconclusive: -46.5%. For `CCCNC(=O)OCCC12CC3CC(CC(C3)C1)C2`, the activity change (PNC), negative = inhibition was inactive: -25%. In the case of `Cc1ccc(-n2nnnc2SCCNS(=O)(=O)c2ccccc2)cc1C`, the activity change (PNC), negative = inhibition is reported as inconclusive: -59.6%. In the case of `O=C(c1cnn2c(C(F)(F)F)cc(-c3ccco3)nc12)N1CCCCCC1`, the activity change (PNC), negative = inhibition is reported as inconclusive: -30.5%. With `CCOc1cc(/C=N/NC(=O)CSc2nncn2C)ccc1OCc1ccccc1` the activity change (PNC), negative = inhibition was active: -96.3%. In the case of `Cc1ccc(C)c(S(=O)(=O)Nc2ccccc2C(=O)Nc2ccccc2N2CCOCC2)c1`, the activity change (PNC), negative = inhibition is reported as inconclusive: -33.4%. With `CCOC(=O)Nc1ccc2c(CN3C(=O)NC4(CCCC4)C3=O)cc(=O)oc2c1` the activity change (PNC), negative = inhibition was active: -100%. For `Cc1ccc2c(=O)cc(C(F)F)oc2c1`, the activity change (PNC), negative = inhibition was inconclusive: -60.8%. In the case of `CCC(C)(c1nnnn1-c1c(C)cccc1C)N(N=O)c1ccccc1Cl` (stereo not drawn), the activity change (PNC), negative = inhibition is reported as inactive: -12.2%. With `Clc1nc(Nc2ccccc2)nc(Nc2ccccc2)n1` the activity change (PNC), negative = inhibition was inconclusive: -62%. With `N#Cc1c(/N=C/C=C/c2ccccc2)sc2c1CCCC2` the activity change (PNC), negative = inhibition was inactive: 20.5%. In the case of `Cc1ccc(/C=C(\NC(=O)c2ccccc2)C(=O)OCc2ccccc2)cc1`, the activity change (PNC), negative = inhibition is reported as inconclusive: -30%. For `COc1ccc(NC(=O)c2cccc(OC(F)F)c2)cc1Cl`, the activity change (PNC), negative = inhibition was inactive: 27.3%. For `CCCn1c(=O)c2c(c3ccccc31)OCC(=O)N2`, the activity change (PNC), negative = inhibition was inconclusive: -37.7%. With `Cc1ccc(S(=O)(=O)/N=C(/c2ccc(F)cc2)N2CCCCC2)cc1` the activity change (PNC), negative = inhibition was inconclusive: -72.7%. With `CCCNC(=O)c1ccccc1NC(=O)c1ccc(CSc2ccccc2)cc1` the activity change (PNC), negative = inhibition was inconclusive: -53.5%. With `CCOC(=O)c1sc(NC(=O)C2CC2)cc1C` the activity change (PNC), negative = inhibition was inconclusive: -51%. With `Cc1ccccc1NS(=O)(=O)c1ccc(NC(=O)CSCc2ccc(Br)cc2)cc1` the activity change (PNC), negative = inhibition was active: -99.4%. With `CC(NC(=O)COC(=O)[C@@H]1CCCN1S(=O)(=O)c1ccccc1F)C12CC3CC(CC(C3)C1)C2` (stereo partly drawn) the activity change (PNC), negative = inhibition was inactive: 44%. With `C=C(C)CSc1nncn1/N=C/c1ccc(OC)cc1` the activity change (PNC), negative = inhibition was inconclusive: -39.6%. In the case of `CCCCNC(=O)C1(c2ccc(OC)cc2)CCOCC1`, the activity change (PNC), negative = inhibition is reported as inconclusive: -59.6%. For `CCOC(=O)c1nn(-c2ccccc2F)c2nc(Nc3ccccc3)cc(=O)n12`, the activity change (PNC), negative = inhibition was active: -91%. In the case of `COc1ccnc(CSC(N)=Nc2ccccc2OC)c1`, the activity change (PNC), negative = inhibition is reported as active: -81.2%. For `O=C(NC(=S)N1CCN(Cc2ccccc2)CC1)c1ccccc1`, the activity change (PNC), negative = inhibition was inactive: -17%. With `O=[N+]([O-])c1ccc(CN2CCCCCC2)s1` the activity change (PNC), negative = inhibition was inconclusive: -37.7%. With `CCOC(=O)/C=C(\C)Nc1cc(C)nn1-c1ccccc1` the activity change (PNC), negative = inhibition was inconclusive: -47.1%. With `CC(C)CCCNc1nc(N2CCOCC2)nc(N2CCOCC2)n1` the activity change (PNC), negative = inhibition was inactive: 45.3%. In the case of `O=C(NCc1ccco1)c1cnc2sccn2c1=O`, the activity change (PNC), negative = inhibition is reported as inconclusive: -57.1%. In the case of `O=C(COC(=O)c1cccc([N+](=O)[O-])c1)c1ccc(OCc2ccccc2)cc1`, the activity change (PNC), negative = inhibition is reported as active: -116%. For `O=C(Nc1ccccc1)N(C1=NCCC1)c1ccc(OC(F)F)cc1`, the activity change (PNC), negative = inhibition was inactive: 3.78%. In the case of `Cc1ccc(NN2C(=O)C=CC2=O)cc1`, the activity change (PNC), negative = inhibition is reported as active: -112%. With `c1cn2cc(CSC3CCCCC3)nc2s1` the activity change (PNC), negative = inhibition was inconclusive: -76.9%. In the case of `O=C(CSc1nnc(-c2ccccc2)c(-c2ccccc2)n1)Nc1ncc(Cl)cc1Cl`, the activity change (PNC), negative = inhibition is reported as inconclusive: -35.7%. With `COc1cccc(NC(=O)CC2C(=O)NC3CCCCC3N2C(=O)c2ccc(F)cc2)c1` (stereo not drawn) the activity change (PNC), negative = inhibition was inconclusive: -30.5%. With `O=C(COc1ccccc1Cl)NCCCN1CCOCC1` the activity change (PNC), negative = inhibition was inconclusive: -50.5%. With `CCOc1cc(/C=C2/SC(=Nc3ccccc3)N(Cc3cccnc3)C2=O)ccc1OCC#N` the activity change (PNC), negative = inhibition was inconclusive: -35.3%. In the case of `CCOc1ccc2nc(SC3CC(=O)N(c4cccc(OC)c4)C3=O)sc2c1` (stereo not drawn), the activity change (PNC), negative = inhibition is reported as inconclusive: -37.8%. In the case of `CCOc1ccccc1NC(=O)CSc1nnc(-c2ccccn2)n1Cc1ccco1`, the activity change (PNC), negative = inhibition is reported as active: -81.8%. In the case of `O=C(O)c1ccc(CNC(=O)c2ccc(Br)o2)cc1`, the activity change (PNC), negative = inhibition is reported as inconclusive: -35.7%. In the case of `Nc1nnc(CSCc2ccc(F)cc2)s1`, the activity change (PNC), negative = inhibition is reported as inconclusive: -62.5%. For `COC(=O)c1c(NC(=O)COC(=O)c2ccc(Cl)cc2[N+](=O)[O-])sc2c1CCCCC2`, the activity change (PNC), negative = inhibition was inconclusive: -37.9%. For `Cc1ccc(C)c(C(=O)CSc2n[nH]c(C)n2)c1`, the activity change (PNC), negative = inhibition was inactive: -6.21%.
